# Results taken from PubChem BioAssay AID220 (DTP/NCI, 2004).
# The list is a part of this screen's results and no random one: it gathers tests that were run many times, whatever their T/C, doses with no T/C, and many T/C values between a quarter and a half above the control. Other doses and runs of a compound stand elsewhere. T/C: endpoint of the treated group in % of that of the vehicle group. Schedules are NCI's codes, taken here to give the interval after Q, in days (D) or hours (H), and the number of doses after X. Some T/C values are followed by the survivors on the day toxicity was checked, most often the fifth; without a count, all were alive then. Some entries give survivors of the animals treated and no T/C: the source files T/C as zero there, which appears to mark a toxic dose or a test without result, not a measured value. Counts of survivors are from the toxicity check (mostly the fifth day) where no day follows; animals may have died later. Some entries were tested several times; the values are given in rising order.
# Tested on: CD8F1 mice, subcutaneous mammary adenocarcinoma, T/C%
# Experiment: NCI In Vivo Anticancer Drug Screen. Data for tumor model Mammary Adenocarcinoma CD8F1 (subcutaneous) in CD8F1
# Conditions: higher T/C = larger tumour
# In short: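 Ratio of treated to vehicle-control outcome, based on either survival or tumor size, in mice bearing transplantable tumors given the test compound.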
# [1] = T/C endpoint: median tumor weight change, dose: 250.0 mg/kg/injection, schedule: Q01DX001 (ip), vehicle: saline with Tween-80
# [2] = T/C endpoint: median tumor weight change, dose: 500.0 mg/kg/injection, schedule: Q01DX001 (ip), vehicle: saline with Tween-80
structure (smiles),measurement,setting,value
CN(C)c1ccc2c(N(C)C)cc(N(C)C)nc2c1,T/C,"T/C endpoint: median tumor weight (est.), dose: 3.12 mg/kg/injection, schedule: Q07DX005 (ip), vehicle: Klucel (hydroxypropylcellulose) (HPC), evaluated on day 32",126 % of control
same,T/C,"T/C endpoint: median tumor weight (est.), dose: 6.25 mg/kg/injection, schedule: Q07DX005 (ip), vehicle: Klucel (hydroxypropylcellulose) (HPC), evaluated on day 32",144 % of control [8 of 10 alive]
CC1OC(OC2CC(O)(C(=O)CO)Cc3c(O)c4c(c(O)c32)C(=O)c2ccccc2C4=O)CC(N)C1O (stereo not drawn),T/C,"T/C endpoint: mean tumor weight, dose: 0.25 mg/kg/injection, schedule: Q07DX006 (ip), vehicle: saline, evaluated on day 40",142 % of control
same,survivor count,"T/C endpoint: median tumor weight change, dose: 10.0 mg/kg/injection, schedule: Q01DX001 (ip), vehicle: water",2 of 10 on day 35
CC[N+](CC)(CC)CC,survivor count,"T/C endpoint: median tumor weight change, dose: 40.0 mg/kg/injection, schedule: Q01DX001 (ip), vehicle: saline with Tween-80",4 of 10 on day 43 and 6 of 10 on day 28
same,survivor count,"T/C endpoint: median tumor weight change, dose: 60.0 mg/kg/injection, schedule: Q01DX001 (ip), vehicle: saline with Tween-80","0 of 10 on day 34, 3 of 10 on day 27, 5 of 10 on day 28, 6 of 10 on day 28"
same,survivor count,"T/C endpoint: median tumor weight change, dose: 90.0 mg/kg/injection, schedule: Q01DX001 (ip), vehicle: saline with Tween-80",0 of 10 on day 28 and 1 of 10 on day 28
same,survivor count,"T/C endpoint: median tumor weight change, dose: 120.0 mg/kg/injection, schedule: Q01DX001 (ip), vehicle: saline with Tween-80",2 of 10 on day 27
same,survivor count,"T/C endpoint: median tumor weight change, dose: 133.0 mg/kg/injection, schedule: Q01DX001 (ip), vehicle: saline with Tween-80",0 of 10 on day 28
same,survivor count,"T/C endpoint: median tumor weight change, dose: 200.0 mg/kg/injection, schedule: Q01DX001 (ip), vehicle: saline with Tween-80",0 of 10 on day 28
same,survivor count,"T/C endpoint: median tumor weight change, dose: 300.0 mg/kg/injection, schedule: Q01DX001 (ip), vehicle: saline with Tween-80",0 of 10 on day 28
COc1cc2c[n+](C)c3c4cc5c(cc4ccc3c2cc1OC)OCO5,T/C,"T/C endpoint: median tumor weight (est.), dose: 20.0 mg/kg/injection, schedule: Q07DX005 (ip), vehicle: saline with Tween-80, evaluated on day 30",129 % of control
same,survivor count,"T/C endpoint: median tumor weight (est.), dose: 160.0 mg/kg/injection, schedule: Q07DX005 (ip), vehicle: saline with Tween-80",1 of 10 on day 30
same,survivor count,"T/C endpoint: median tumor weight (est.), dose: 320.0 mg/kg/injection, schedule: Q07DX005 (ip), vehicle: saline with Tween-80",0 of 10 on day 30
O=C1N(Cl)C(=O)C(c2ccc(Cl)cc2)(c2ccc(Cl)cc2)N1Cl,survivor count,"T/C endpoint: median tumor weight change, dose: 400.0 mg/kg/injection, schedule: Q01DX001 (ip), vehicle: saline with Tween-80",1 of 10 on day 35
same,survivor count,"T/C endpoint: median tumor weight change, dose: 800.0 mg/kg/injection, schedule: Q01DX001 (ip), vehicle: saline with Tween-80",0 of 9 on day 35
O=C(NO)c1ccc(O)c(O)c1,survivor count,"T/C endpoint: median tumor weight change, dose: 1200.0 mg/kg/injection, schedule: Q01DX001 (ip), vehicle: water",0 of 10 on day 34
same,survivor count,"T/C endpoint: median tumor weight change, dose: 2400.0 mg/kg/injection, schedule: Q01DX001 (ip), vehicle: water",0 of 10 on day 34
CC(C)[C@](O)(C(=O)OCC1=CCN2CC[C@@H](O)[C@@H]12)[C@H](C)O,T/C,"T/C endpoint: median tumor weight change, dose: 500.0 mg/kg/injection, schedule: Q01DX001 (ip), vehicle: water, evaluated on day 31",127 % of control
same,survivor count,"T/C endpoint: median tumor weight change, dose: 1000.0 mg/kg/injection, schedule: Q01DX001 (ip), vehicle: water",1 of 10 on day 31
same,survivor count,"T/C endpoint: median tumor weight change, dose: 2000.0 mg/kg/injection, schedule: Q01DX001 (ip), vehicle: water",0 of 10 on day 31
Cc1ccoc1,survivor count,"T/C endpoint: median tumor weight change, dose: 333.3 mg/kg/injection, schedule: Q03HX003 (ip), vehicle: saline with Tween-80",0 of 10 on day 25
N=C(N)SCc1cccc2c(=O)cc(-c3ccccc3)oc12,survivor count,"T/C endpoint: median tumor weight change, dose: 2000.0 mg/kg/injection, schedule: Q01DX001 (ip), vehicle: suspension in saline",5 of 10 on day 38
CC[C@](C)(O)C(=O)O[C@H]1C(=O)O[C@@H]2C[C@H]3C(C)=CC(=O)[C@@H](O)[C@]3(C)[C@H]3[C@@]4(O)OC[C@]32[C@@H]1[C@@H](C)[C@H]4O,survivor count,"T/C endpoint: median tumor weight (est.), dose: 0.5 mg/kg/injection, schedule: Q07DX005 (ip), vehicle: Klucel (hydroxypropylcellulose) (HPC)",5 of 10
same,survivor count,"T/C endpoint: median tumor weight change, dose: 2.0 mg/kg/injection, schedule: Q01DX001 (ip), vehicle: Klucel (hydroxypropylcellulose) (HPC)",2 of 10 on day 35
same,survivor count,"T/C endpoint: median tumor weight change, dose: 4.0 mg/kg/injection, schedule: Q01DX001 (ip), vehicle: Klucel (hydroxypropylcellulose) (HPC)",0 of 10 on day 35
same,survivor count,"T/C endpoint: median tumor weight change, dose: 6.0 mg/kg/injection, schedule: Q01DX001 (ip), vehicle: Klucel (hydroxypropylcellulose) (HPC)",0 of 10 on day 35
C[n+]1c(-c2cccc3ccccc23)c2cc(N)ccc2c2ccccc21,survivor count,"T/C endpoint: median tumor weight (est.), dose: 25.0 mg/kg/injection, schedule: Q07DX005 (ip), vehicle: saline",5 of 10
C1CC[N-]CC1.[Cl][Pt+2][Cl].[NH-]C1CC1,survivor count,"T/C endpoint: median tumor weight change, dose: 125.0 mg/kg/injection, schedule: Q01DX001 (ip), vehicle: distilled water + Tween-80",5 of 10 on day 31
same,survivor count,"T/C endpoint: median tumor weight change, dose: 250.0 mg/kg/injection, schedule: Q01DX001 (ip), vehicle: distilled water + Tween-80",2 of 10 on day 31
same,survivor count,"T/C endpoint: median tumor weight change, dose: 250.0 mg/kg/injection, schedule: Q01DX001 (ip), vehicle: water",4 of 10 on day 28
same,survivor count,"T/C endpoint: median tumor weight change, dose: 500.0 mg/kg/injection, schedule: Q01DX001 (ip), vehicle: distilled water + Tween-80",0 of 10 on day 31
same,survivor count,"T/C endpoint: median tumor weight change, dose: 500.0 mg/kg/injection, schedule: Q01DX001 (ip), vehicle: water",0 of 10 on day 28
O=C(O)c1ccc(SSc2ccc(C(=O)O)cn2)nc1,survivor count,"T/C endpoint: mean tumor weight, dose: 750.0 mg/kg/injection, schedule: Q07DX007 (ip), vehicle: saline",4 of 10
same,survivor count,"T/C endpoint: mean tumor weight, dose: 1000.0 mg/kg/injection, schedule: Q07DX007 (ip), vehicle: saline",2 of 10
CCN(CC)CCC(=O)c1ccccc1,T/C,"T/C endpoint: median tumor weight change, dose: 62.5 mg/kg/injection, schedule: Q01DX001 (ip), vehicle: saline with Tween-80, evaluated on day 26",131 % of control
same,survivor count,"T/C endpoint: median tumor weight change, dose: 125.0 mg/kg/injection, schedule: Q01DX001 (ip), vehicle: saline with Tween-80",5 of 10 on day 26
same,survivor count,[1],0 of 10 on day 26
same,survivor count,[2],0 of 10 on day 26
same,survivor count,"T/C endpoint: median tumor weight change, dose: 1000.0 mg/kg/injection, schedule: Q01DX001 (ip), vehicle: saline with Tween-80",0 of 10 on day 26
OC(CCl)CN1CC[N+]2(CC1)CC[N+]1(CCN(CC(O)CCl)CC1)CC2 (stereo not drawn),survivor count,"T/C endpoint: median tumor weight change, dose: 1600.0 mg/kg/injection, schedule: Q01DX001 (ip), vehicle: saline",1 of 10 on day 27
CCCCNCCCNCCCNC(=O)c1csc(-c2csc(CCNC(=O)C(NC(=O)C(C)C(O)C(C)NC(=O)C(NC(=O)c3nc(C(CC(N)=O)NCC(N)C(N)=O)nc(N)c3C)C(OC3OC(CO)C(O)C(O)C3OC3OC(CO)C(O)C(OC(N)=O)C3O)c3cnc[nH]3)C(C)O)n2)n1 (stereo not drawn),survivor count,"T/C endpoint: median tumor weight (est.), dose: 128.0 mg/kg/injection, schedule: Q07DX005 (ip), vehicle: saline",0 of 10 on day 30
c1ccc([P+](c2ccccc2)(c2ccccc2)c2ccccc2)cc1,T/C,"T/C endpoint: median tumor weight (est.), dose: 1.25 mg/kg/injection, schedule: Q04DX005 (ip), vehicle: saline, evaluated on day 30",126 % of control
same,T/C,"T/C endpoint: median tumor weight (est.), dose: 1.25 mg/kg/injection, schedule: Q07DX004 (ip), vehicle: saline, evaluated on day 30",145 % of control [9 of 10 alive]
same,T/C,"T/C endpoint: median tumor weight (est.), dose: 5.0 mg/kg/injection, schedule: Q07DX004 (ip), vehicle: saline, evaluated on day 30",136 % of control [8 of 10 alive]
same,survivor count,"T/C endpoint: median tumor weight (est.), dose: 5.0 mg/kg/injection, schedule: Q07DX005 (ip), vehicle: saline",6 of 10
CCN(CC)Cc1cc2[nH]c3c4ccc(Cl)cc4ncc3c2cc1OC,survivor count,[1],0 of 10 on day 29
same,survivor count,[2],0 of 10 on day 29
